# Test results published in PubChem BioAssay AID1347076 (National Center for Advancing Translational Sciences (NCATS), 2019).
# “And” between values parts separate entries of the source, which are not always exact repeats. Identical values can stand only once. Screen size: about 400,000 compounds; about 13,000 (3.2%) were called active. The shares of active, inactive and inconclusive entries below differ from those in the screen. Calls follow the shape of the dose curve; as a rule, active = well fitted cell-killing curve with a large enough effect; inconclusive = small, poorly fitted or top-dose-only effect, or effect the other way; inactive = flat fitted curve, though single readings scatter. Potencies of inconclusive entries are doubtful fits and often do not repeat.
# Experiment: qHTS assay for MDR1-selective chemotherapeutics: Primary screen using the drug-selected MDR subline cells KB-V1; also: nearly all actives have a fitted effect of over 60% in size
# Conditions: KB-V1 MDR cells viability, CellTiter-Glo, 72 h; activity change, negative = cytotoxicity: at 46.1 µM (top of the series)
# How it was run: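 Potencies derive from concentration-effect curves fitted to normalized luminescence (CellTiter-Glo) of KB-V1 cells treated for 72 h at 37 degrees C in phenol-red-free DMEM containing 10% FBS.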
# % is scaled to controls: 0 for no effect and ±100 for the full control effect; potency is read from the fitted curve at half-maximal effect.
SMILES,Potency,"activity change, negative = cytotoxicity"
CCOc1ccc(/C(O)=C2/C(=O)C(=O)N(CC3CCCO3)C2c2cccs2)cc1 (centres undefined),"inconclusive: 18.4 µM [cytotoxic, partial curve, poor fit]",–
CCOC(=O)Cc1csc(SCc2nc3sc4c(c3c(=O)[nH]2)CCC4)n1,"inconclusive: 32.6 µM [cytotoxic, partial curve, poor fit]",–
Clc1cc(Br)ccc1OCCCNCc1ccccc1,"inconclusive: 29.1 µM [cytotoxic, single point]",–
CNC(=O)c1ccc(-c2sc3nc(N4CCOCC4)c4c(c3c2N)CC(C)(C)OC4)o1,"inconclusive: 20.6 µM [cytotoxic, single point]",–
COc1ccccc1NC(=O)c1cc2c(n(-c3ccc(C)cc3)c1=O)CC(C)(C)CC2=O,–,inconclusive: -15.9%
O=C(CSc1nc2ccccc2s1)NNC(=S)Nc1ccccc1,–,inactive: -27.2%
CCCCCCc1nc2ccccc2c(=O)n1NC(=O)c1c(O)c2c(n(CC(C)C)c1=O)CCCC2,active: 18.4 µM,–
O=C(Cc1c(F)cccc1Cl)Nc1cc(S(=O)(=O)N2CCOCC2)ccc1N1CCCC1,–,inactive: -23%
O=C(Cn1ncc2c3ccccc3n(Cc3cccc(Cl)c3)c2c1=O)NCc1ccccn1,"inconclusive: 1.84 µM [rising, partial curve, poor fit]",–
Cc1cc(Br)ccc1NC(=O)CN1C(=S)NC(C)(C)CC1C (centres undefined),"inconclusive: 16.4 µM [cytotoxic, single point]",–
CCc1nnc(NC(=O)CSc2nnc(-c3ccoc3C)n2-c2ccccc2)s1,"inconclusive: 18.4 µM [cytotoxic, single point]",–
O=c1oc2c(O)c(O)cc3c(=O)oc4c(O)c(O)cc1c4c23,"inconclusive: 29.1 µM [cytotoxic, single point] and inconclusive: 29.1 µM [cytotoxic, partial curve, poor fit]",–
COc1ccc(CCNC(=O)c2cc(=O)c3c(C)cc(C)cc3o2)cc1OC,"inconclusive: 2.91 µM [cytotoxic, full curve]",–
Cc1cccc(OCCNc2cc(N3CCOCC3)ccc2[N+](=O)[O-])c1,–,inactive: 7.04%
CC(CC(=O)NCc1ccc(Cl)cc1Cl)CC1=NS(=O)(=O)c2ccccc2N1 (centres undefined),"inconclusive: 29.1 µM [rising, single point]",–
O=[N+]([O-])c1ccc(CN2CCC(Cc3ccccc3)CC2)cc1,–,inactive: -2.09%
Cc1ccc(NC(=O)C2CCCN(c3ncccn3)C2)cc1C (centres undefined),–,inactive: -28%
O=c1c2c(nc3c(-c4ccc(Cl)cc4)c[nH]n13)CCC2,active: 4.61 µM,–
CCOc1ccc(S(=O)(=O)Nc2cccc(C(=O)NCCCn3ccnc3)c2)cc1,"inconclusive: 29.1 µM [rising, single point]",–
